Results are given in words; binding and its absence hold for the method and conditions named.
Experiments:
[1] = target: T1, recombinant human glycosylated TFF2 (trefoil factor 2) (human) (UniProt Q03403); assay: condition: 600 ng/mL DMBT1^gp340 (highest tested); TFF coated at up to 2 µg/mL; ELISA; TFF proteins coated on Maxisorp plates (two-fold dilutions from 2 µg/mL, carbonate buffer pH 9.6, overnight 4 °C); DMBT1^gp340 in two-fold dilutions from 600 ng/mL for 2 h in TBS, 0.05% Tween 20, 5 mM CaCl2, pH 7.4, room temperature; detected with rabbit polyclonal K421 and alkaline phosphatase-coupled anti-rabbit IgG; both purified
T1 sequence (chain, asparagine N-linked glycosylation (position not printed)): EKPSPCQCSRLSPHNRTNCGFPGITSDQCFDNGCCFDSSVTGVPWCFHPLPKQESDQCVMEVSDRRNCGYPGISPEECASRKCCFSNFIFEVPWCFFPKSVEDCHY

The chains behind the UniProt entries cited, without tags or fusion partners. Where a name states a change or a piece, a line headed by the entry shows the natural chain unless it says otherwise. Residues count along the entry.
UniProt Q9UGM3, residues 20-2413: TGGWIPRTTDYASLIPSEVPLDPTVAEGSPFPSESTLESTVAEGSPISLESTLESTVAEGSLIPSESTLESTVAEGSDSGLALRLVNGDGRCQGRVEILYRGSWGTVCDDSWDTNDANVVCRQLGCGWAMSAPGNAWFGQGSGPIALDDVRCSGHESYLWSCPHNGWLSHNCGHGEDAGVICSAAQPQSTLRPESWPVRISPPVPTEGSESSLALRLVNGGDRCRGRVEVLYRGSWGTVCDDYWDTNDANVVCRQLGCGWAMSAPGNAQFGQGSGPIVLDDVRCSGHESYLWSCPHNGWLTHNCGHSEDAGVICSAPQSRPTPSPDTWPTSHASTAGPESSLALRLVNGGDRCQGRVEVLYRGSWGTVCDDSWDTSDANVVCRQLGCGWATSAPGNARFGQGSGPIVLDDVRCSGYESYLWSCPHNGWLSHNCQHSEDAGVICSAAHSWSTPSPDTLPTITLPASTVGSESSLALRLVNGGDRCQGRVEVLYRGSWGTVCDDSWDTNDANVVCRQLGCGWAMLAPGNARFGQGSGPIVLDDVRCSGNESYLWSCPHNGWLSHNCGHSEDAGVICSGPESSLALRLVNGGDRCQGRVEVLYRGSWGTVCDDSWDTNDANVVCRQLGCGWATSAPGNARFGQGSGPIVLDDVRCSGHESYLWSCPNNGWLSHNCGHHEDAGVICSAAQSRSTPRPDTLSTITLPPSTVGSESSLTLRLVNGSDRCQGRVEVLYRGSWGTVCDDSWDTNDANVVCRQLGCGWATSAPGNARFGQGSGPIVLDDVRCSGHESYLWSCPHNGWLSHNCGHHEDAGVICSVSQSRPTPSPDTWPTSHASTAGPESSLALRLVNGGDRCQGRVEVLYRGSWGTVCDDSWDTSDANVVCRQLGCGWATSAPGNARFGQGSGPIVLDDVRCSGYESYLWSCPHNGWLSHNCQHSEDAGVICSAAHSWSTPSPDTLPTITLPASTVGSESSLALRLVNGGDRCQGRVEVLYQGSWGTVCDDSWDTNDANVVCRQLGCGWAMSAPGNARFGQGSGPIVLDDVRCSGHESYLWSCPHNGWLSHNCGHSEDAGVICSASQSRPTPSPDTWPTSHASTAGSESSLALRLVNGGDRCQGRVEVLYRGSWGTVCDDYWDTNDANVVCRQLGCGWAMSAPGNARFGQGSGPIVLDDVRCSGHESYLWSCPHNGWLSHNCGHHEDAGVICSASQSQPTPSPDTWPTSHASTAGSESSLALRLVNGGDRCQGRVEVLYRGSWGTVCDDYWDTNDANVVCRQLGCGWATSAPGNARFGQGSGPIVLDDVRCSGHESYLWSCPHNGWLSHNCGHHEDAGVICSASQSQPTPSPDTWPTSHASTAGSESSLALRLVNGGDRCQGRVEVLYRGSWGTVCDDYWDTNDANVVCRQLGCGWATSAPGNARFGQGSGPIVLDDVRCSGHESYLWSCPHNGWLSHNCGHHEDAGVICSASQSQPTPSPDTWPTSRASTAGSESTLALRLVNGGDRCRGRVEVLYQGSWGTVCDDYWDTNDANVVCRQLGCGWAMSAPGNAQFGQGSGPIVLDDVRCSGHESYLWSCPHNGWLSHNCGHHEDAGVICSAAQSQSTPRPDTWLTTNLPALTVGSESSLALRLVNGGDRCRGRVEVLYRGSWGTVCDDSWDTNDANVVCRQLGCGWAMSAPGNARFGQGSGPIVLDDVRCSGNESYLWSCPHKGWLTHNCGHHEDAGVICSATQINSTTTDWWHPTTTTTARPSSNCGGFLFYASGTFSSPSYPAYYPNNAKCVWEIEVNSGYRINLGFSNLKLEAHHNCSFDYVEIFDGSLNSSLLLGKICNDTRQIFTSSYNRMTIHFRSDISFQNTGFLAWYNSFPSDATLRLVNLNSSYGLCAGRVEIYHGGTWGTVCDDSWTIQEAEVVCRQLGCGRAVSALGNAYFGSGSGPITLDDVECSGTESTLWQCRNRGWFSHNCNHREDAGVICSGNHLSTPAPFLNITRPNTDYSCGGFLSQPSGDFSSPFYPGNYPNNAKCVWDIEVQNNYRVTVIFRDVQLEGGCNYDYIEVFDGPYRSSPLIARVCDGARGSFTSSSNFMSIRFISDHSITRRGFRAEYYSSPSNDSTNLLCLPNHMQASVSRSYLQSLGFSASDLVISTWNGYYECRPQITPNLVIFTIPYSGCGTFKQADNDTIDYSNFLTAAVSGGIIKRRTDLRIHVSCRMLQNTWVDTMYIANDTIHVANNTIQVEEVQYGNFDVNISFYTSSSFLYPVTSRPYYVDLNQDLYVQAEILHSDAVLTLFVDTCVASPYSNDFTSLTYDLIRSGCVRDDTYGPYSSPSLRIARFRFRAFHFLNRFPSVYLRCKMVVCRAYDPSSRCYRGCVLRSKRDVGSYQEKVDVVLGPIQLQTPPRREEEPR

[2] = target: T2, recombinant human non-glycosylated TFF2 (trefoil factor 2) (human) (UniProt Q03403); assay: as above
T2 sequence: T1 sequence (chain, asparagine N-linked glycosylation (position not printed))

binding [1]: no binding
binding [2]: no binding
Substance: Native DMBT1^gp340 (deleted in malignant brain tumors 1, glycoprotein 340) (from UniProt Q9UGM3 20-2413)
